# Laboratory results reported in the supplement of paper PMC12889115.
# This is one part of the list. Values are raw readings; no control value is given beside them.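 In the initial screen, polymyxin B was used at a concentration that permeabilizes Salmonella's outer membrane but not its inner membrane. Maximum growth was set by DMSO wells with or without polymyxin B. Since plates varied, data were ranked per plate, and compounds giving the lowest OD600 advanced as hits.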
# Test system: Salmonella enterica serovar Typhimurium SL1344
# Test: bacterial growth OD600 after 18 h with compound and polymyxin B; higher = more bacterial growth (less inhibition)
# Conditions: 50 µM, Mueller-Hinton broth
Compound,bacterial growth OD600 (polymyxin B 1 µg/mL),bacterial growth OD600 (polymyxin B 0.75 µg/mL)
NC(=O)C1(C(=O)N2CCCC(N3CCN(Cc4ccc5c(c4)OCO5)CC3)C2)CC1 (stereo unspecified),0.942,
COC1CCCN(C(=O)C2(N3CCCCC3)Cc3ccccc3C2)C1 (stereo unspecified),,0.524
CC(=O)c1cc(CN2CCC(n3nccc3NC(=O)Cc3ccccc3)CC2)cs1,0.922,
Cc1noc(-c2ccc(N3CCCCC3CCN3CCCC3=O)nc2)n1 (stereo unspecified),1.1,
COCC1CCN(C(=O)c2cn(C(c3ccccc3)c3ccccc3)nn2)C1 (stereo unspecified),0.68,
Cc1ccccc1C1(CC(=O)N2CCN(CCO)CC2)CC(=O)N(Cc2ccncc2)C1=O (stereo unspecified),,0.852
COc1ccccc1C1CN(CC(=O)N(C)CC2CCN(CC(C)C)C2)Cc2ccccc2O1 (stereo unspecified),,0.617
Fc1cccc(C2CCCCN2Cc2nc(Cc3ccccc3F)no2)c1 (stereo unspecified),0.982,
COc1ccccc1CCN1CCC(CN(C)C(=O)Cc2cccc(F)c2)CC1,0.882,
COc1cccc(CC2=NOC(C(=O)N3CCC(Oc4ccccc4OC)CC3)C2)c1 (stereo unspecified),,0.748
COc1ccc(O)c(CN2CCCC(c3nc(-c4ccncc4)ncc3-c3ccccc3)C2)c1 (stereo unspecified),,0.815
CC1(C2CCN(C(=O)Cc3ccc4c(c3)OCO4)CC2)NC(=O)N(C2Cc3ccccc3C2)C1=O (stereo unspecified),,0.98
CC(CNC1CCN(c2ccc(C(=O)NCc3ccc4c(c3)OCO4)cc2)CC1)c1ccccc1 (stereo unspecified),,0.749
O=C(c1ccccc1OC1CCN(Cc2ccccn2)CC1)N1CCCC1,,0.82
O=C(Nc1ccc(-c2nc3ccccc3o2)cc1)C1CCCN1C(=O)CC1CC1 (stereo unspecified),,0.87
CCC1CN(CCNC(=O)C2CC(=O)N(C(C)C)C2)Cc2cc(OC)ccc2O1 (stereo unspecified),,0.824

Compound,bacterial growth OD600 (polymyxin B 1 µg/mL),bacterial growth OD600 (polymyxin B 0.75 µg/mL)
COCc1ccc(CN2CCCC(C(=O)Nc3cccc(-n4cccn4)c3)C2)o1 (stereo unspecified),1.24,
Cc1ccccc1C1(CC(=O)N2CCCC2c2nccs2)CC(=O)N(Cc2ccccc2)C1=O (stereo unspecified),,0.004
CCOC(=O)C1(Cc2ccc(F)cc2)CCCN(C(=O)c2ccc(N(C)C)cc2)C1 (stereo unspecified),0.572,
COC(=O)C(CCSC)NC(=O)c1ccc2oc(C(C)C)nc2c1 (stereo unspecified),1.15,
CC(C)CCC(=O)N1CCCC1C(=O)Nc1ccccc1Oc1cccnc1 (stereo unspecified),0.912,
COCc1noc(-c2ccc(N(C)Cc3ncccc3C)nc2)n1,0.997,
CSCCNC(=O)C1CC(Cc2cccc(Cl)c2)=NO1 (stereo unspecified),,0.796
CSc1nccc(N2C[C@H]3OC(=O)N(Cc4ccccn4)[C@H]3C2)n1,,0.838
COC(=O)CCC(=O)N1CCCC(CCc2cccc(OC)c2)C1 (stereo unspecified),,0.777
CCN1CCN(c2ccc(C(=O)NCCC3CCCCN3C)cn2)CC1 (stereo unspecified),0.884,
O=C(C1CCOCC1)N1CCC(C2CCN(Cc3cccc(F)c3F)CC2)C1 (stereo unspecified),,0.945
O=C(NC1CCCN(Cc2ccc(Cl)cc2)C1)c1cnc(CN2CCCC2)s1 (stereo unspecified),1.28,
CC(=O)N1CCN(C(=O)CC2(c3ccccc3C)CC(=O)N(Cc3cccnc3)C2=O)CC1 (stereo unspecified),,0.911
CCOC(=O)C1(Cc2cccc(Cl)c2)CCCN(C(=O)c2cc(C)on2)C1 (stereo unspecified),0.747,
Fc1ccc(Cc2noc(-c3ccc(N4CCCO4)nc3)n2)cc1,1.1,

# Already shown: an excerpt of the list.
Compound,bacterial growth OD600 (polymyxin B 1 µg/mL),bacterial growth OD600 (polymyxin B 0.75 µg/mL)
O=C(C1CCOCC1)N1CCC(C2CCN(Cc3cccc(F)c3F)CC2)C1 (stereo unspecified),,0.945
O=C(NC1CCCN(Cc2ccc(Cl)cc2)C1)c1cnc(CN2CCCC2)s1 (stereo unspecified),1.28,
CC(=O)N1CCN(C(=O)CC2(c3ccccc3C)CC(=O)N(Cc3cccnc3)C2=O)CC1 (stereo unspecified),,0.911
